Reference: patent US20070117770

The chains behind the UniProt entries cited, without tags or fusion partners. Residues count along the entry.
UniProt P19338, 284-710: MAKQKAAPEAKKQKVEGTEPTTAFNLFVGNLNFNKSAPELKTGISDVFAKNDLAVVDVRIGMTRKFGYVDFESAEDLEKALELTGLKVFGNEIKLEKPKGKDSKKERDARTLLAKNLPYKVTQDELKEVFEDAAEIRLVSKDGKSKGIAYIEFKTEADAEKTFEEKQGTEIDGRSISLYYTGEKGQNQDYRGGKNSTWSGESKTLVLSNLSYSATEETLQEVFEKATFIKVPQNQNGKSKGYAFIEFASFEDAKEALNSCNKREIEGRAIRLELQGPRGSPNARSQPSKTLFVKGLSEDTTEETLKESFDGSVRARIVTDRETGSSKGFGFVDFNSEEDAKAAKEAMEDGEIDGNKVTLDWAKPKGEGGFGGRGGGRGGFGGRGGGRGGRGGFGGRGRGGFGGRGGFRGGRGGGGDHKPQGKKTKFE

Columns and labels:
[1] = molecular target: Nucleolin (MBP fusion, lacking N-terminal acidic stretches domain) (Homo sapiens) (UniProt P19338); test: EMSA; conditions: purified recombinant protein; protein details: maltose binding protein (MBP) fusion; label: 32P; folded or branched DNA
[2] = molecular target: Nucleolin (MBP fusion, lacking N-terminal acidic stretches domain) (Homo sapiens) (UniProt P19338); test: filter binding; conditions: purified recombinant protein, protein details: maltose binding protein (MBP) fusion, label: 32P

Sequence	binding result [1]	other results
GGGAGGGCGCGCGGGTCGGGG [8749NT]	binds more weakly	–
GGGAGGGGCACGGGCCGGGGGCGGGACGGG [7733T]	binds more weakly	–
GGGCTGGGTCGGTCGGGCTGGGG [10816NT]	–	Kd ([2]; 60 mM KCl, 1 mM MgCl2, folded or branched DNA): > 30 nM
GGGGCGCGGCGGGGGGAGAAGGGTCGGGGCGGCAGGGG [11028NT]	binds more weakly	–
GGGGGCGGGAACCCCCGGGCGCCTGTGGG [6374NT]	no binding	–
GGGTCGGGGGCGGTGGTGGGCCCGCGGGGG [6183NT]	binds more weakly	–
GTCGTAACGTCGATCAGTTTACGACAT [RND27]	–	Kd ([2]; random single-stranded control, single-stranded DNA): > 30 nM

For some of these results: No signal at the amounts used counts as a negative. For some of these results: Weaker means in comparison with the reference protein, sequence or condition of that experiment.
